Experimental data: US20260256792A1, “TREATMENT OF CHRONIC SPONTANEOUS URTICARIA BY ADMINISTERING (R)-2-[3-[4-AMINO-3-(2-FLUORO-4-PHENOXY-PHENYL)PYRAZOLO[3,4-D]PYRIMIDIN-1-YL]PIPERIDINE-1-CARBONYL]-4-METHYL-4-[4-(OXETAN-3-YL)PIPERAZIN-1-YL]PENT-2-ENENITRILE” (priority 2023, published 2026)
Further values from the same series stand in other lists.

Tested on: angioedema in CSU patients
Assay: Phase 2 CSU study: angioedema activity score over 7 days (AAS7)
Assay type: in vivo, human
Conditions: omalizumab-naïve, angioedema at baseline
Excerpt: The study comprises a 12 week, randomized, double-blind, placebo-controlled, multi-center, dose-ranging efficacy and safety phase, followed by a 40 week open label extension (OLE) phase (see FIG. 1). The study consists of three phases and an optional OLE phase. […] The weekly angioedema activity score (AAS7) was proposed as a tertiary endpoint. […] Patients were to complete the AAS using the e-diary. The e-diary was to be used once daily on the same time of each day recording of participant's answers to the angioedema activity score over 7 days (AAS7) questionnaire.

CC(C)(C=C(C#N)C(=O)N1CCC[C@@H](n2nc(-c3ccc(Oc4ccccc4)cc3F)c3c(N)ncnc32)C1)N1CCN(C2COC2)CC1 [rilzabrutinib, (R)-2-[3-[4-amino-3-(2-fluoro-4-phenoxy-phenyl)pyrazolo[3,4-d]pyrimidin-1-yl]piperidine-1-carbonyl]-4-methyl-4-[4-(oxetan-3-yl)piperazin-1-yl]pent-2-enenitrile]
AAS7 Change difference for rilzabrutinib vs. placebo LS Mean (95% CI) (400 mg BID, Week 2): −7.43 (−19.15, 4.29) | AAS7 Change from baseline LS Mean (SE) (400 mg BID, Week 2): −26.11 (4.50) | AAS7 Change difference for rilzabrutinib vs. placebo LS Mean (95% CI) (400 mg BID, Week 3): −11.92 (−24.12, 0.27) | AAS7 Change from baseline LS Mean (SE) (400 mg BID, Week 3): −35.08 (4.66) | AAS7 Change difference for rilzabrutinib vs. placebo LS Mean (95% CI) (400 mg BID, Week 4): −15.05 (−26.84, −3.27) | AAS7 Change from baseline LS Mean (SE) (400 mg BID, Week 4): −34.90 (4.47) | AAS7 Change difference for rilzabrutinib vs. placebo LS Mean (95% CI) (400 mg BID, Week 5): −4.63 (−16.28, 7.02) | AAS7 Change from baseline LS Mean (SE) (400 mg BID, Week 5): −35.28 (4.45) | AAS7 Change difference for rilzabrutinib vs. placebo LS Mean (95% CI) (400 mg BID, Week 6): −8.84 (−21.64, 3.95) | AAS7 Change from baseline LS Mean (SE) (400 mg BID, Week 6): −36.17 (4.80) | AAS7 Change difference for rilzabrutinib vs. placebo LS Mean (95% CI) (400 mg BID, Week 7): −8.40 (−20.39, 3.59) | AAS7 Change from baseline LS Mean (SE) (400 mg BID, Week 7): −37.12 (4.53) | AAS7 Change difference for rilzabrutinib vs. placebo LS Mean (95% CI) (400 mg BID, Week 8): −13.38 (−25.33, −1.44) | AAS7 Change from baseline LS Mean (SE) (400 mg BID, Week 8): −41.30 (4.49) | AAS7 % Change difference for rilzabrutinib vs. placebo LS Mean (95% CI) (400 mg BID, Week 9): −27.62 (−59.82, 4.58) % | AAS7 Change difference for rilzabrutinib vs. placebo LS Mean (95% CI) (400 mg BID, Week 9): −12.36 (−23.79, −0.92) | AAS7 Change from baseline LS Mean (SE) (400 mg BID, Week 9): −40.15 (4.33) | AAS7 % Change difference for rilzabrutinib vs. placebo LS Mean (95% CI) (400 mg BID, Week 10): −16.22 (−60.13, 27.69) % | AAS7 Change difference for rilzabrutinib vs. placebo LS Mean (95% CI) (400 mg BID, Week 10): −10.43 (−22.69, 1.83) | AAS7 Change from baseline LS Mean (SE) (400 mg BID, Week 10): −38.01 (4.62) | AAS7 % Change difference for rilzabrutinib vs. placebo LS Mean (95% CI) (400 mg BID, Week 11): −24.83 (−55.17, 5.52) % | AAS7 Change difference for rilzabrutinib vs. placebo LS Mean (95% CI) (400 mg BID, Week 11): −9.58 (−21.83, 2.67) | AAS7 Change from baseline LS Mean (SE) (400 mg BID, Week 11): −41.52 (4.63) | AAS7 % Change difference for rilzabrutinib vs. placebo LS Mean (95% CI) (400 mg BID, Week 12): −24.94 (−53.17, 3.29) % | AAS7 % Change from baseline LS Mean (SE) (400 mg BID, Week 12): −86.30 (10.67) % | AAS7 Change difference for rilzabrutinib vs. placebo LS Mean (95% CI) (400 mg QPM, Week 2): −2.53 (−13.99, 8.94) | AAS7 Change from baseline LS Mean (SE) (400 mg QPM, Week 2): −21.21 (4.21) | AAS7 Change difference for rilzabrutinib vs. placebo LS Mean (95% CI) (400 mg QPM, Week 3): 1.31 (−10.66, 13.27) | AAS7 Change from baseline LS Mean (SE) (400 mg QPM, Week 3): −21.85 (4.38) | AAS7 Change difference for rilzabrutinib vs. placebo LS Mean (95% CI) (400 mg QPM, Week 4): −5.31 (−16.86, 6.24) | AAS7 Change from baseline LS Mean (SE) (400 mg QPM, Week 4): −25.16 (4.19) | AAS7 Change difference for rilzabrutinib vs. placebo LS Mean (95% CI) (400 mg QPM, Week 5): 2.08 (−9.37, 13.52) | AAS7 Change from baseline LS Mean (SE) (400 mg QPM, Week 5): −28.57 (4.18) | AAS7 Change difference for rilzabrutinib vs. placebo LS Mean (95% CI) (400 mg QPM, Week 6): 1.87 (−10.66, 14.40) | AAS7 Change from baseline LS Mean (SE) (400 mg QPM, Week 6): −25.45 (4.55) | AAS7 Change difference for rilzabrutinib vs. placebo LS Mean (95% CI) (400 mg QPM, Week 7): 6.71 (−5.27, 18.69) | AAS7 Change from baseline LS Mean (SE) (400 mg QPM, Week 7): −22.00 (4.38) | AAS7 Change difference for rilzabrutinib vs. placebo LS Mean (95% CI) (400 mg QPM, Week 8): −1.84 (−13.56, 9.89) | AAS7 Change from baseline LS Mean (SE) (400 mg QPM, Week 8): −29.76 (4.29) | AAS7 % Change difference for rilzabrutinib vs. placebo LS Mean (95% CI) (400 mg QPM, Week 9): −0.07 (−31.59, 31.45) % | AAS7 Change difference for rilzabrutinib vs. placebo LS Mean (95% CI) (400 mg QPM, Week 9): 2.00 (−9.20, 13.21) | AAS7 Change from baseline LS Mean (SE) (400 mg QPM, Week 9): −25.79 (4.12) | AAS7 % Change difference for rilzabrutinib vs. placebo LS Mean (95% CI) (400 mg QPM, Week 10): −4.23 (−47.40, 38.95) % | AAS7 % Change from baseline LS Mean (SE) (400 mg QPM, Week 10): −48.11 (15.70) % | AAS7 Change difference for rilzabrutinib vs. placebo LS Mean (95% CI) (400 mg QPM, Week 10): 0.84 (−10.97, 12.66) | AAS7 Change from baseline LS Mean (SE) (400 mg QPM, Week 10): −26.74 (4.35) | AAS7 % Change difference for rilzabrutinib vs. placebo LS Mean (95% CI) (400 mg QPM, Week 11): 6.27 (−23.29, 35.83) % | AAS7 % Change from baseline LS Mean (SE) (400 mg QPM, Week 11): −52.05 (10.68) % | AAS7 Change difference for rilzabrutinib vs. placebo LS Mean (95% CI) (400 mg QPM, Week 11): 4.36 (−7.60, 16.33) | AAS7 Change from baseline LS Mean (SE) (400 mg QPM, Week 11): −27.59 (4.31) | AAS7 % Change difference for rilzabrutinib vs. placebo LS Mean (95% CI) (400 mg QPM, Week 12): 8.71 (−19.46, 36.88) % | AAS7 % Change from baseline LS Mean (SE) (400 mg QPM, Week 12): −52.66 (10.25) % | AAS7 Change difference for rilzabrutinib vs. placebo LS Mean (95% CI) (400 mg TID, Week 2): −13.79 (−25.99, −1.60) | AAS7 Change from baseline LS Mean (SE) (400 mg TID, Week 2): −32.47 (4.53) | AAS7 Change difference for rilzabrutinib vs. placebo LS Mean (95% CI) (400 mg TID, Week 3): −13.01 (−25.71, −0.30) | AAS7 Change from baseline LS Mean (SE) (400 mg TID, Week 3): −36.16 (4.71) | AAS7 Change difference for rilzabrutinib vs. placebo LS Mean (95% CI) (400 mg TID, Week 4): −19.05 (−31.29, −6.81) | AAS7 Change from baseline LS Mean (SE) (400 mg TID, Week 4): −38.89 (4.51) | AAS7 Change difference for rilzabrutinib vs. placebo LS Mean (95% CI) (400 mg TID, Week 5): −8.94 (−21.03, 3.15) | AAS7 Change from baseline LS Mean (SE) (400 mg TID, Week 5): −39.59 (4.46) | AAS7 Change difference for rilzabrutinib vs. placebo LS Mean (95% CI) (400 mg TID, Week 6): −10.77 (−24.18, 2.64) | AAS7 Change from baseline LS Mean (SE) (400 mg TID, Week 6): −38.09 (4.88) | AAS7 Change difference for rilzabrutinib vs. placebo LS Mean (95% CI) (400 mg TID, Week 7): −8.96 (−21.57, 3.65) | AAS7 Change from baseline LS Mean (SE) (400 mg TID, Week 7): −37.68 (4.70) | AAS7 Change from baseline LS Mean (SE) (400 mg TID, Week 8): −39.04 (4.68) | AAS7 Change difference for rilzabrutinib vs. placebo LS Mean (95% CI) (400 mg TID, Week 9): −15.14 (−27.06, −3.23) | AAS7 Change from baseline LS Mean (SE) (400 mg TID, Week 9): −42.94 (4.44) | AAS7 % Change difference for rilzabrutinib vs. placebo LS Mean (95% CI) (400 mg TID, Week 10): −46.10 (−91.54, −0.67) % | AAS7 Change difference for rilzabrutinib vs. placebo LS Mean (95% CI) (400 mg TID, Week 10): −17.05 (−29.81, −4.29) | AAS7 Change from baseline LS Mean (SE) (400 mg TID, Week 10): −44.63 (4.75) | AAS7 % Change difference for rilzabrutinib vs. placebo LS Mean (95% CI) (400 mg TID, Week 11): −20.16 (−50.91, 10.58) % | AAS7 % Change from baseline LS Mean (SE) (400 mg TID, Week 11): −78.48 (11.38) % | AAS7 Change difference for rilzabrutinib vs. placebo LS Mean (95% CI) (400 mg TID, Week 11): −9.39 (−21.92, 3.13) | AAS7 Change from baseline LS Mean (SE) (400 mg TID, Week 11): −41.34 (4.63) | AAS7 % Change difference for rilzabrutinib vs. placebo LS Mean (95% CI) (400 mg TID, Week 12): −23.26 (−52.37, 5.85) % | AAS7 % Change from baseline LS Mean (SE) (400 mg TID, Week 12): −84.63 (10.83) % | AAS7 Change difference for rilzabrutinib vs. placebo LS Mean (95% CI) (400 mg TID, Week 12): −10.65 (−22.56, 1.26) | AAS7 Change from baseline LS Mean (SE) (400 mg TID, Week 12): −44.04 (4.42)
